{"source": "patent US7863040B2", "about": "“Ready-to-use whole blood collection vessel” (Roche Diagnostics Operations, Inc., priority 2006, dated 2011)", "origin": "cited, not measured here", "conditions": "cited from earlier work", "note": "At least one compound was matched to its structure with a doubt left.", "data": [{"smiles": "CO[C@H]1C[C@@H]2CC[C@@H](C)[C@@](O)(O2)C(=O)C(=O)N2CCCC[C@H]2C(=O)O[C@H]([C@H](C)C[C@@H]2CC[C@@H](O)[C@H](OC)C2)CC(=O)[C@H](C)/C=C(\\C)[C@@H](O)[C@@H](OC)C(=O)[C@H](C)C[C@H](C)/C=C/C=C/C=C/1C", "note": "[sirolimus, rapamycin]", "values": [{"measurement": "potency relative to cyclosporin in vitro", "result": "up to 100 times"}]}]}
